Source: patent US10300143B2, “Compositions for treating cancer and methods for making the same” (THE BRIGHAM AND WOMEN'S HOSPITAL, INC., priority 2012, dated 2019)

Tested on: 4T1 breast cancer cells
Assay: PI103-SNPs internalization assay
Assay type: cell-based, murine

`Oc1cccc(-c2nc(N3CCOCC3)c3oc4ncccc4c3n2)c1` [PI103] was tested, and the “intracellular concentration of PI103” value (4 hours) was “higher in the cells treated with the free drug than in SNP-PI103” and the “intracellular concentration of PI103” value (18 hours) was “only traces of the drug were detected”.
